Measurements: PubChem BioAssay AID743266 (National Center for Advancing Translational Sciences (NCATS), 2014)
Out of some 410,000 compounds screened, about 310 (0.076%) were called active. The inconclusive results got no clear call from the source; some entries with a clear call stand among them for comparison. Calls come from the whole dose curve; as a rule, active = well fitted activation curve with a large enough effect; inconclusive = small, poorly fitted or top-dose-only effect, or another doubt; inactive = no such curve, though single readings can be large or run the other way. Potencies beside an inconclusive call are fits to weak or partial responses and may not hold up.

Amino acid sequences for entries named in this document (tags omitted). A change or cut given only in a name is not applied to a line headed by its entry.
UniProt Q03431: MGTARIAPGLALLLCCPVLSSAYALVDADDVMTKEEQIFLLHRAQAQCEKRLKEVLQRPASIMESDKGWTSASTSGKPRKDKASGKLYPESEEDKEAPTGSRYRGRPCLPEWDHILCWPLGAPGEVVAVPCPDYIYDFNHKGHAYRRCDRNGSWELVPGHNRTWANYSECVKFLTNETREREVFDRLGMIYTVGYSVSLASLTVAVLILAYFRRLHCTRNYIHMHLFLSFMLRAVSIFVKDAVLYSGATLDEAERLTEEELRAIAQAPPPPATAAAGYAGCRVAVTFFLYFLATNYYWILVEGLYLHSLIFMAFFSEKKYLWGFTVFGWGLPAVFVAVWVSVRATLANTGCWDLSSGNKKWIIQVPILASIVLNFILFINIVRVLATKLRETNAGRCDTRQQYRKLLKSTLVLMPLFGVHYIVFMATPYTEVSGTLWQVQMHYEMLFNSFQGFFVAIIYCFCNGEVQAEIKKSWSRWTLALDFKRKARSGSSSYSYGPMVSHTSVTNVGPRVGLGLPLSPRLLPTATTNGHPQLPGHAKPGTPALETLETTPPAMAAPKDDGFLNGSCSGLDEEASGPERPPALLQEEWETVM

target: Parathyroid hormone/parathyroid hormone-related peptide receptor (Homo sapiens) (UniProt Q03431); test: qHTS for PTHR1 Agonists: Primary Screen; details: HEK293 GP2 PTHR1 cells, GloSensor cAMP luminescence, 1 h; activation: at 115 µM (top of the series) unless noted; series mostly up to 115 µM; note: nearly all actives have a fitted effect of over 55% in size
In short: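 HEK-293-derived GP2 cells expressing PTHR1 and a GloSensor cAMP reporter, 3,000/well, plated overnight, given luciferin plus IBMX (each 0.5 mM as added) for 1 h at 37 °C, then compound for 1 h at 37 °C. Luminescence was read after 15 min at room temperature.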
Potency is the fitted concentration of half-maximal effect.

Row | SMILES | Potency | activation
1 | O=C(CSc1nc2ccccc2[nH]1)N1CCN(c2ccc(F)cc2)CC1 | inactive | 
2 | Cc1cc(/C=C2/C(=O)N(C)C(=S)N2C)c(C)n1C1CC1 | inactive | 
3 | C/C(=N\Nc1nc(C)cc(C)n1)c1ccc(N2CCOCC2)cc1 | inconclusive: 44.7 µM [activator, partial curve, poor fit] | 
4 | Cc1cccc(NC(=O)CSc2nc(-c3cccc(C)c3)nc3c2Cc2c(CO)cnc(C)c2O3)c1 |  | inconclusive: 46% [activator]
5 | CCNc1ccc(Br)cc(C(=O)/C=C/c2ccc(Cl)cc2Cl)c1=O | inactive | 
6 | COc1ccc(C(=O)OCC(=O)NC2CCCCCC2)cc1OC | inconclusive: 56.2 µM [activator, single point] | 
7 | NC(=O)C1CCCCc2c1[nH]c1ccc(Cl)cc21 (centres undefined) | inactive | 
8 | O=C(O)Cc1cc2c(s1)CCCCC2 | inconclusive: 8.91 µM [activator, single point] | 
9 | CCc1ccc(-c2nc3c(c(SCc4ccccc4)n2)Cc2c(CO)cnc(C)c2O3)cc1 | inconclusive: 89.1 µM [activator, single point] | 
10 | CCc1ccc(/C=N/NC(=O)c2cc(C3CC3)nc3ccc(Br)cc23)s1 | inconclusive: 15.8 µM [activator, partial curve] | 
11 | O=c1cccc(-c2ccccc2)[nH]1 | inconclusive: 7.94 µM [activator, full curve, poor fit] | 
12 | Cc1ccc(C(=O)N2CCCC(Nc3ccc(F)c(F)c3)C2)cn1 (centres undefined) | inconclusive: 10 µM [activator, single point] | 
13 | Cc1c(C(=O)NCc2ccc(F)cc2)sc(=O)n1Cc1ccc(Cl)c(Cl)c1 | inactive | 
14 | Cc1ccc(-c2oc3ncnc(N)c3c2-c2ccc(C)cc2)cc1 | inconclusive: 56.2 µM [activator, full curve, poor fit] | 
15 | O=C1Nc2ccccc2Oc2cc(Oc3ccccc3)ccc21 | inactive | 
16 | CC(CC(=O)N1CCc2ccccc21)S(=O)(=O)c1ccc2c(c1)NC(=O)CO2 (centres undefined) | inconclusive: 14.1 µM [activator, partial curve] | 
17 | O=C(O)C(C/C(=N/O)c1ccc(Br)cc1)P(=O)(c1ccccc1)c1ccccc1 (centres undefined) |  | inconclusive: 36.8% [activator]
18 | COc1ccc(CN2CCN(C(C)C(=O)N(C)Cc3cccc(F)c3)CC2)cc1OC (centres undefined) | inactive | 
19 | Cc1nnc(NC(=O)CCC(=O)NCc2cccs2)s1 | inconclusive: 44.7 µM [activator, single point] | 
20 | Cc1cc(C)c(NS(=O)(=O)c2ccc(Cl)c(C(=O)O)c2)c(C)c1 | inconclusive: 3.16 µM [activator, single point] | 
21 | CCN(CC)CCOC(=O)c1ccc(NC(=O)c2cc3c(=O)n(CC)c4ccccc4c3s2)cc1 | inconclusive: 63.1 µM [activator, partial curve, poor fit] | 
22 | CCCN1CCC(NC(=S)Nc2ccc(OC)c(OC)c2)CC1 | inconclusive: 100 µM [activator, partial curve, poor fit] | 
23 | CCc1c(C2CC2)ncn1Cc1cccc(-c2ccccc2)c1 | inactive | 

Gathered by group, the entries above with sulfur.
Row | SMILES | Potency | activation
1 | O=C(CSc1nc2ccccc2[nH]1)N1CCN(c2ccc(F)cc2)CC1 | inactive | 
2 | Cc1cc(/C=C2/C(=O)N(C)C(=S)N2C)c(C)n1C1CC1 | inactive | 
4 | Cc1cccc(NC(=O)CSc2nc(-c3cccc(C)c3)nc3c2Cc2c(CO)cnc(C)c2O3)c1 |  | inconclusive: 46% [activator]
8 | O=C(O)Cc1cc2c(s1)CCCCC2 | inconclusive: 8.91 µM [activator, single point] | 
9 | CCc1ccc(-c2nc3c(c(SCc4ccccc4)n2)Cc2c(CO)cnc(C)c2O3)cc1 | inconclusive: 89.1 µM [activator, single point] | 
10 | CCc1ccc(/C=N/NC(=O)c2cc(C3CC3)nc3ccc(Br)cc23)s1 | inconclusive: 15.8 µM [activator, partial curve] | 
13 | Cc1c(C(=O)NCc2ccc(F)cc2)sc(=O)n1Cc1ccc(Cl)c(Cl)c1 | inactive | 
16 | CC(CC(=O)N1CCc2ccccc21)S(=O)(=O)c1ccc2c(c1)NC(=O)CO2 (centres undefined) | inconclusive: 14.1 µM [activator, partial curve] | 
19 | Cc1nnc(NC(=O)CCC(=O)NCc2cccs2)s1 | inconclusive: 44.7 µM [activator, single point] | 
20 | Cc1cc(C)c(NS(=O)(=O)c2ccc(Cl)c(C(=O)O)c2)c(C)c1 | inconclusive: 3.16 µM [activator, single point] | 
21 | CCN(CC)CCOC(=O)c1ccc(NC(=O)c2cc3c(=O)n(CC)c4ccccc4c3s2)cc1 | inconclusive: 63.1 µM [activator, partial curve, poor fit] | 
22 | CCCN1CCC(NC(=S)Nc2ccc(OC)c(OC)c2)CC1 | inconclusive: 100 µM [activator, partial curve, poor fit] | 

More results:

Row | SMILES | Potency | activation
24 | CSc1nc(C)cc(SCCO)n1 | inconclusive: 7.94 µM [activator, full curve, poor fit] | 
25 | O=C(/C(=N/O)c1ccccc1)c1ccccc1 | inactive | 
26 | COc1cc2ccccc2cc1C(=O)Nc1cccc(-c2nc3cc(C)c(C)cc3o2)c1 | inactive | 
27 | COc1cc2c(cc1OC)CN(C(C)C(=O)Nc1ccc(NC(C)=O)cc1)CC2 (centres undefined) | inactive | 
28 | CC(C)NC(=O)C1CCC(Cn2c(=O)c3sccc3n(Cc3ccc(F)cc3)c2=O)CC1 (centres undefined) | inconclusive: 141 µM [activator, single point] | 
29 | CCN1CCCC(OC(=O)c2cc(-c3ccc(C)cc3)nc3ccccc23)C1 (centres undefined) | inconclusive: 70.8 µM [activator, single point] | 
30 | C[C@H](O)[C@@H]1C(=O)N2CCc3ccc(N4CCN(C)CC4)cc3[C@@H]2C[C@@H]1N(C)C(=O)c1ccc(C#N)cc1 | inactive | 
31 | CC(NC(=O)CCC(=O)c1ccc(F)cc1)C1CC2CCC1C2 (centres undefined) | inconclusive: 20 µM [activator, partial curve, poor fit] | 
32 | COc1ccc(-c2cc(C(=O)Nc3cccc(O)c3)on2)cc1OC | inactive | 
33 | CCCCn1c(=O)[nH]c(=O)c2c1nc(-c1cccc(OC)c1)n2C | inconclusive: 63.1 µM [activator, partial curve, poor fit] | 
34 | O=C(COc1ccc(F)cc1)NCCN1CCCC1 | inactive | 
35 | CCOC(=O)CC1C(=O)NCCN1S(=O)(=O)c1ccc(NC(C)=O)cc1 (centres undefined) | inconclusive: 5.62 µM [activator, partial curve, poor fit] | 
36 | COc1ccc(-c2cnc3c(NC=O)cc(-c4ccc(S(C)(=O)=O)cc4)cn23)cc1OC | inconclusive: 6.31 µM [activator, full curve, poor fit] | 
37 | Cc1ccc(/C(O)=C2/C(=O)C(=O)N(c3ccccn3)C2c2ccc([N+](=O)[O-])cc2)cc1 (centres undefined) | inactive | 
38 | COc1cnc(-c2cccc(C(F)(F)F)c2)c(NC(=O)c2cc3ccccc3s2)n1 |  | inconclusive: -78.1% [activator]
39 | COCCCNC(=O)CSc1nc(-c2ccc(OC)c(OC)c2)[nH]c1-c1ccc(F)cc1 | inconclusive: 112 µM [activator, single point] | 
40 | CC1(C)CC(=O)C(C=Nc2ccc(C(=O)c3ccccc3)cc2N=CC2=C(O)CC(C)(C)CC2=O)=C(O)C1 | inactive | 
41 | CSc1ccc(/C=C2\C(=N)N3N=C(CC(=O)N4CCOCC4)SC3=NC2=O)cc1 | inconclusive: 141 µM [activator, single point] | 
42 | Cc1sc(NC(=O)c2ccco2)c(C(c2cccnc2)N2CCN(CCO)CC2)c1C (centres undefined) | inconclusive: 141 µM [activator, single point] | 
43 | CC(=O)c1ccc(NC(=O)Cn2c(=O)nc(-c3ccccc3)c3cc(Cl)ccc32)cc1 | inconclusive: 10 µM [activator, full curve, poor fit] | 
44 | CCN1C(=O)CC(N2CCN(c3ccc(C(=O)c4ccccc4)cc3)CC2)C1=O (centres undefined) | inactive | 
45 | COc1ccccc1NC(=O)Cn1c(CCC(=O)O)ccc1-c1ccccc1 | inactive | 
46 | CCOc1ccc(CCNC(=O)c2cc3c(s2)-c2c(C)cccc2OC3)cc1 | inconclusive: 126 µM [activator, single point] | 

Row | SMILES | Potency | activation
47 | O=C(C1COc2ccccc2O1)N1CCCC1 (centres undefined) | inconclusive: 35.5 µM [activator, single point] | 
48 | COCCN(C(=O)COC(=O)C1CC(=O)N(c2ccc(C)cc2)C1)c1c(N)n(Cc2ccccc2)c(=O)[nH]c1=O (centres undefined) | inactive | 
49 | CCc1ccc(OCC(=O)Nc2ncc3c(n2)CC(C)(C)CC3=O)cc1 | inconclusive: 17.8 µM [activator, partial curve, poor fit] | 
50 | Cc1cccc(-c2nnc(SCCC(=O)O)o2)c1 | inconclusive: 63.1 µM [activator, partial curve, poor fit] | 
51 | CCOc1ccc(CCNC(=O)c2cnc3c(-c4ccccc4)c(C)nn3c2C)cc1OCC | inconclusive: 70.8 µM [activator, partial curve, poor fit] | 
52 | CC(C)Sc1nc2c([nH]1)c(=N)ncn2Cc1ccccc1 | inconclusive: 126 µM [activator, single point] | 
53 | O=C1C(=O)N(Cc2ccncc2)C(c2cccc(O)c2)/C1=C(\O)c1ccc2c(c1)OCCO2 (centres undefined) | inconclusive: 89.1 µM [activator, partial curve, poor fit] | 
54 | Cc1cc(NCCCCO)n2c(nc3ccccc32)c1C#N | inconclusive: 2.24 µM [activator, partial curve, poor fit] | 
55 | COC(=O)c1ccc(=O)n(-c2ccc(OC)cc2)c1 |  | inconclusive: 33.3% [activator] [at 57.5 µM]
56 | CCCCc1nnc2c(N(C)S(=O)(=O)c3ccc(C)cc3)nc3ccccc3n12 |  | inconclusive: 46.1% [activator]
57 | CCc1cccc(C)c1NS(=O)(=O)c1ccc(-n2cccn2)cc1 |  | inconclusive: -37.1% [activator]
58 | CCc1ccc(NC(=O)N2CCCCCC2)cc1 | inactive | 
59 | CCC(c1nnc(SCC(=O)Nc2ccc(Cl)cc2C(F)(F)F)n1C1CCCCC1)N(C)C (centres undefined) |  | inconclusive: 31.7% [activator]
60 | CSc1ccccc1NC(=O)CO/N=C(\C)c1cc2ccccc2o1 |  | inconclusive: -86.2% [activator]
61 | COc1ccc(CCNC(=O)CCCn2c(=O)c3cccn3c3ccc(F)cc32)cc1OC | inactive | 
62 | COc1cc(Cl)c(C)cc1NC(=O)COC(=O)C1CC1C (centres undefined) | inconclusive: 20 µM [activator, single point] | 
63 | COc1ccccc1-c1nc(C#N)c(N2CCc3ccccc3C2)o1 | inactive | 
64 | O=C(Nc1ccccc1C(=O)O)c1cccc(NC(=O)c2ccccc2Br)c1 | inconclusive: 126 µM [activator, single point] | 
65 | CCCn1c(SCC(=O)Nc2ccc(NC(=O)CC)cc2)nc2c1c(=O)n(C)c(=O)n2C | inconclusive: 50.1 µM [activator, single point] | 
66 | CC(=O)NC12CC3CC(C1)CC(C(=O)NCC(=O)Nc1c(C)cc(C)cc1C)(C3)C2 | inconclusive: 3.55 µM [activator, partial curve] | 
67 | COCCNC(=O)C1CCCN(C(=O)c2ccc3ccccc3n2)CC1 (centres undefined) | inactive | 
68 | COc1ccc(-c2nc(-c3ccccc3)nc(N3CCN(C)CC3)c2C#N)cc1 | inactive | 
69 | CN1CCN(c2ccccc2NC(=O)c2ccc(-c3ccc(Cl)cc3Cl)o2)CC1 | inconclusive: 17.8 µM [activator, partial curve] | 

One compound at a time (already shown).
C[C@H](O)[C@@H]1C(=O)N2CCc3ccc(N4CCN(C)CC4)cc3[C@@H]2C[C@@H]1N(C)C(=O)c1ccc(C#N)cc1 as listed: Potency: inactive
NC(=O)C1CCCCc2c1[nH]c1ccc(Cl)cc21 (centres undefined) as listed: Potency: inactive
